Common to all, as to assay: co-IP
One assay deals with T1, HA-DRG2 wildtype (human) (UniProt P55039).
T1 sequence: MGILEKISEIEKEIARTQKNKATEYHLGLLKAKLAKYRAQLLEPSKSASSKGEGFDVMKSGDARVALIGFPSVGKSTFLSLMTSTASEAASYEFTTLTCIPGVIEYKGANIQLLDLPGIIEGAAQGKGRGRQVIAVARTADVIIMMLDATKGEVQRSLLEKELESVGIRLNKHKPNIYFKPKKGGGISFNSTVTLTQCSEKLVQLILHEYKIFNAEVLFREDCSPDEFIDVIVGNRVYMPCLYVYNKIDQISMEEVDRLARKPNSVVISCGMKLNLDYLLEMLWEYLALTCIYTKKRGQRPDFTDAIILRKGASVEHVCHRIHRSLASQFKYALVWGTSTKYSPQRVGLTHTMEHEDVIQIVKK

Assay [1] addresses T2, HA-DRG1 L155E + I260R + V264K (human) (UniProt Q9Y295).
T2 sequence: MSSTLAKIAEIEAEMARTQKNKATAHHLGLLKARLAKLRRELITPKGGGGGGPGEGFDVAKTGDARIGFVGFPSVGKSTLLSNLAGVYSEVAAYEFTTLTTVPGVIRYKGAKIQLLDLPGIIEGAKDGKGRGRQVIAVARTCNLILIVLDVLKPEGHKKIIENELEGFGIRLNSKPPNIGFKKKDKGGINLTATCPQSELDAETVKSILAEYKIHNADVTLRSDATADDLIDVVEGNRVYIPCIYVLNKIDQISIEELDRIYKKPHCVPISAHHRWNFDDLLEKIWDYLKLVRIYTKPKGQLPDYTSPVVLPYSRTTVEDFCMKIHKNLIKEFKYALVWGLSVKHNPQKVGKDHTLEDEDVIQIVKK

The target of another assay is T3, HA-DRG2 D277A (human) (UniProt P55039).
T3 sequence: T1 sequence with D277A

The target in a further assay is T4, HA-DRG1 D280Y (human) (UniProt Q9Y295).
T4 sequence: T2 sequence with E155L, R260I, K264V, D280Y

Assay [2] addresses T5, HA-DRG2 E153L + A260Y + Y278D (human) (UniProt P55039).
T5 sequence: T1 sequence with E153L, A260Y, Y278D

This passage reports binding results from doi:10.1101/2023.05.31.543024.

Residue numbers refer to the chain shown, from its start. These are yes or no findings as the source states them, for the method shown. Binding seen in cells or lysates may run through a third protein. Some entries that bind do so weakly or less than the wild type. Where a sequence is shown, tags or fusion partners need not be part of it.

B1: DRG family regulatory protein 2 (DFRP2), endogenous (protein, UniProt Q9H446 1-243)
chain: MTDYGEEQRNELEALESIYPDSFTVLSENPPSFTITVTSEAGENDETVQTTLKFTYSEKYPDEAPLYEIFSQENLEDNDVSDILKLLALQAEENLGMVMIFTLVTAVQEKLNEIVDQIKTRREEEKKQKEKEAEEAEKQLFHGTPVTIENFLNWKAKFDAELLEIKKKRMKEEEQAGKNKLSGKQLFETDHNLDTSDIQFLEDAGNNVEVDESLFQEMDDLELEDDEDDPDYNPADPESDSAD
With B1, the binding entry with HA-DRG2 wildtype (human) is “binds”; in assay [1], “binds weakly”; with HA-DRG2 D277A (human) it was “binds”; with HA-DRG1 D280Y (human), “binds”; in assay [2] it was “no binding”.
